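HEK293 cells carrying a CMV promoter luciferase reporter, with luminescence read 24 h after treatment to check for nonspecific loss of reporter signal. Percent change in reporter signal versus neutral control wells at the top tested concentration; more negative values mean stronger inhibition. Inconclusive means the independent runs disagreed, the fit was flat at 30 to 70% inhibition, or the curve fit was poor.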

Values are in %. All entries here are filed as inconclusive. Only part of the assay is shown, chiefly results filed as inconclusive.

Result for COc1cc(/C=N/Nc2nc(Nc3ccc(C)cc3)nc(-n3nc(C)cc3C)n2)cc(OC)c1OC [at 35 µM (top of the series)] was activity change -24%. COc1ccc(C(=O)NN(C)c2nc(C(F)(F)F)nc3ccccc23)cc1 [at 35 µM (top of the series)] gave activity change -45.9%. For O=C(Nc1ccc(C(F)(F)F)cc1)Nc1ccc2c(c1)[C@H]1C[C@@H](CC(=O)N3CCc4ccccc4C3)O[C@H](CO)[C@H]1O2 [at 35 µM (top of the series)] the result was activity change -1.668%. Result for COc1ccc(CCNc2nnc(Sc3nnnn3-c3ccccc3)s2)cc1OC [at 35 µM (top of the series)] was activity change -38.35%.

C=CCNC(=S)N/N=C(\C)c1ccccn1 [at 35 µM (top of the series)] read activity change -42.67%. O=C(C1CC1)N1C[C@@H]2N[C@H](C1)C2c1ccc(-c2cccc(F)c2)cc1 (stereo partly shown) [at 35 µM (top of the series)] read activity change -44.61%. With O=C1CN(S(=O)(=O)Cc2ccccc2)C[C@H]2[C@H](c3ccc(C#Cc4ccc(F)cc4)cc3)[C@H](CO)N12 [at 35 µM (top of the series)] the assay gave activity change -10.31%. CC(=O)n1cc(N(C(=O)CCl)c2ccccc2)c2ccccc21 [at 35 µM (top of the series)] read activity change -62.42%.

COc1ccc(C[C@H]2NC[C@H](O)[C@H]2OC(C)=O)cc1 [at 35 µM (top of the series)] read activity change -99.79%. Result for CC(OC(=O)c1ccc(S(C)(=O)=O)c([N+](=O)[O-])c1)C(=O)NC1C2CC3CC(C2)CC1C3 (stereo not shown) [at 35 µM (top of the series)] was activity change 23.99%. Result for O=C(CN1C(=O)c2ccccc2S1(=O)=O)c1ccc(Cl)cc1Cl [at 35 µM (top of the series)] was activity change -80.29%. For Cc1ccc(C)c(CSC2=NCCN2C(=O)Cc2ccc([N+](=O)[O-])cc2)c1 [at 35 µM (top of the series)] the result was activity change -91.49%.

Result for O=C(CCS(=O)(=O)c1ccccc1)Nc1nc2ccc(F)cc2s1 [at 35 µM (top of the series)] was activity change 20.18%. For CCN1CCN(Cc2ccc(NC(=O)c3cc(NC(=O)C(=O)c4c[nH]c5ccccc45)cc(OC)c3)cc2C(F)(F)F)CC1 [at 35 µM (top of the series)] the result was activity change 18.71%. For Cc1[nH]c2ccccc2c(=O)c1C(=O)/C=C/c1ccccc1 [at 35 µM (top of the series)] the result was activity change -45%. C[C@@H]1CN([C@H](C)CO)C(=O)c2cc(NC(=O)Nc3ccc(C(F)(F)F)cc3)ccc2O[C@@H](C)CCCCO[C@H]1CN(C)S(=O)(=O)c1ccc(F)cc1 [at 35 µM (top of the series)] read activity change -38.4%.

For CC(C)c1cc(C(=O)OCC(=O)N2CCN(C(=O)c3ccco3)CC2)c(O)c(C(C)C)c1 [at 35 µM (top of the series)] the result was activity change -4.909%. With Cn1nnnc1Sc1ncnc2scc(-c3cccc(Br)c3)c12 [at 35 µM (top of the series)] the assay gave activity change -54.98%. O=C(C[C@@H]1C[C@H]2c3cc(NS(=O)(=O)c4ccc(F)cc4)ccc3O[C@H]2[C@H](CO)O1)NCc1ccc(-c2ccccc2)cc1 [at 35 µM (top of the series)] gave activity change -45.94%. COc1ccc2cc(CNCCOCCOCCNCc3ccc4cc(OC)ccc4c3)ccc2c1 [at 35 µM (top of the series)] read activity change -45.68%.

For C=CC(=O)N=c1sc2ccccc2n1-c1ccccc1 [at 35 µM (top of the series)] the result was activity change 32.15%. For O=C(NCCc1ccccc1F)c1ccc2c(c1)OCCO2 [at 35 µM (top of the series)] the result was activity change -99.42%. With C#CCN(C[C@@H]1[C@@H](OC(=O)NCC2CCCCC2)[C@@H](OC(=O)NCC2CCCCC2)Cn2c(=O)ccc(=O)n21)S(=O)(=O)c1ccc(C)cc1 [at 35 µM (top of the series)] the assay gave activity change -30.43%. With C[C@H]1CCCCO[C@H](CN(C)C(=O)Nc2ccc(C(F)(F)F)cc2)[C@@H](C)CN([C@@H](C)CO)C(=O)c2cc(NS(=O)(=O)c3ccc(F)cc3)ccc2O1 [at 35 µM (top of the series)] the assay gave activity change -58.32%.

With Cc1ccc(S(=O)(=O)N(C)C[C@H]2OCCCC[C@H](C)Oc3ccc(NS(=O)(=O)c4ccc(Cl)cc4)cc3C(=O)N([C@H](C)CO)C[C@@H]2C)cc1 [at 35 µM (top of the series)] the assay gave activity change -24.14%. C#Cc1cc(N2CCN(C(=O)c3ccoc3)CC2)n2nc(-c3cccc(Cl)c3)cc2n1 [at 35 µM (top of the series)] read activity change -35.48%. For O=C(Nc1cccc(C(=O)O)c1)Nc1ccc2c(c1)OCO2 [at 35 µM (top of the series)] the result was activity change -8.167%. With Cc1ccc2nc(C)cc(Nc3ccc([N+](=O)[O-])cc3)c2c1 [at 35 µM (top of the series)] the assay gave activity change 3.787%.

For COc1ccc(-c2cn(CC[C@@H]3CC[C@H](NC(=O)Cc4ccccn4)[C@@H](CO)O3)nn2)cc1 [at 35 µM (top of the series)] the result was activity change 1.94%. With Cc1ccc2nc(-c3ccc(Br)cc3)cn2c1 [at 35 µM (top of the series)] the assay gave activity change 3.03%. Result for CN1CCc2c(sc(NC(=O)c3ccc([N+](=O)[O-])o3)c2C(N)=O)C1 [at 35 µM (top of the series)] was activity change -10.53%. For COc1ccc(N(C(=O)CCl)C(C(=O)NC2CCCCC2)c2cccnc2)cc1 (stereo not shown) [at 35 µM (top of the series)] the result was activity change -40.89%.

Some entries from above, unchanged:

{"compound": "COc1cc(/C=N/Nc2nc(Nc3ccc(C)cc3)nc(-n3nc(C)cc3C)n2)cc(OC)c1OC", "setting": "at 35 µM (top of the series)", "activity change (%)": "-24"}
{"compound": "CC(C)c1cc(C(=O)OCC(=O)N2CCN(C(=O)c3ccco3)CC2)c(O)c(C(C)C)c1", "setting": "at 35 µM (top of the series)", "activity change (%)": "-4.909"}

The results are deposited in PubChem (AID743020; Broad Institute, 2013).